## Assay results

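Vaccinia-infected cells with a two-color viral stage reporter; Venus fluorescence read on a plate reader; the cell line is not named here; timing not stated here.
The test concentration is not given here.
Percent change in Venus reporter signal; lower (more negative) values mean stronger inhibition of that viral stage.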

Values are in %.
How 0% and 100% were set is not given here.
Common to all entries: measured here: Venus reporter, other viral stage.
Part of the compounds only, not a random draw; the main read-out is not listed here.

{"smiles": "CC(C)CC#Cc1ccc2c(c1)O[C@H](CN(C)C(=O)NC1CCCC1)[C@@H](C)CN([C@@H](C)CO)S2(=O)=O", "activity change (Venus) (%)": "-49.52"}
{"smiles": "C[C@H]1CN([C@@H](C)CO)C(=O)Cc2cc(NC(=O)CCCCCC(=O)Nc3ccccc3N)ccc2O[C@H]1CN(C)Cc1ccc(C(F)(F)F)cc1", "activity change (Venus) (%)": "-61.39"}
{"smiles": "CCCNC(=O)N1CC2(CN(Cc3cccc(OC)c3)C2)c2c([nH]c3cc(OC)ccc23)[C@H]1CO", "activity change (Venus) (%)": "-38.7"}
{"smiles": "C[C@@H]1CN([C@H](C)CO)C(=O)c2cc(NC(=O)Nc3ccc(F)cc3)ccc2O[C@H]1CN(C)Cc1ccc(C(F)(F)F)cc1", "activity change (Venus) (%)": "-66.74"}
{"smiles": "COc1cccc(NC(=O)N(C)C[C@H]2Oc3cc(C#Cc4ccc(F)cc4)ccc3S(=O)(=O)N([C@@H](C)CO)C[C@H]2C)c1", "activity change (Venus) (%)": "-35.07"}
{"smiles": "CCCC#Cc1ccc2c(c1)O[C@H](CN(C)Cc1ccc3c(c1)OCO3)[C@@H](C)CN([C@@H](C)CO)S2(=O)=O", "activity change (Venus) (%)": "-31.59"}
{"smiles": "CO[C@@H]1CN(C)C(=O)c2ccc(NC(=O)c3ccc(-c4ccccc4)cc3)cc2OC[C@@H](C)NC[C@H]1C", "activity change (Venus) (%)": "-57.99"}
{"smiles": "COc1ccccc1S(=O)(=O)N(C)C[C@@H]1Oc2cc(C#CCC(C)C)ccc2S(=O)(=O)N([C@H](C)CO)C[C@@H]1C", "activity change (Venus) (%)": "-28.14"}
{"smiles": "Cn1cnc(CCNC(=O)C[C@@H]2CC[C@@H]3[C@H](COC[C@@H](O)CN3C(=O)Nc3ccc(C(F)(F)F)cc3)O2)c1", "activity change (Venus) (%)": "-38.06"}
{"smiles": "C[C@@H]1CN([C@@H](C)CO)S(=O)(=O)c2ccc(Br)cc2O[C@H]1CN(C)Cc1cccc(F)c1", "activity change (Venus) (%)": "-30.61"}
{"smiles": "COc1cccc(C#Cc2ccc([C@@H]3[C@@H](C#N)N(C(=O)c4ccccn4)[C@H]3CO)cc2)c1", "activity change (Venus) (%)": "-33.33"}
{"smiles": "O=C(Nc1cc(F)ccc1F)N1CC(=O)N2[C@H](CO)[C@@H](c3ccc(-c4ccccc4)cc3)[C@H]2C1", "activity change (Venus) (%)": "-42.75"}
{"smiles": "C[C@@H]1CN([C@H](C)CO)C(=O)c2cccc(NC(=O)c3cnccn3)c2O[C@@H]1CN(C)Cc1ccc(C(=O)Nc2ccccc2N)cc1", "activity change (Venus) (%)": "-30.87"}
{"smiles": "O=C(Nc1ccc(F)cc1)N1CCCCN2[C@@H](CO)[C@@H](c3ccc(-c4cccc(F)c4)cc3)[C@@H]2C1", "activity change (Venus) (%)": "-84.34"}
{"smiles": "C[C@@H]1CN([C@@H](C)CO)C(=O)c2cc(C#Cc3ccccc3)cnc2O[C@@H]1CN(C)S(=O)(=O)c1ccccc1F", "activity change (Venus) (%)": "-29.41"}
{"smiles": "Cc1ccccc1S(=O)(=O)N1CCCCN2[C@H](CO)[C@@H](c3ccc(-c4cccnc4)cc3)[C@@H]2C1", "activity change (Venus) (%)": "-28.13"}
{"smiles": "CCCC#Cc1ccc2c(c1)O[C@H](CN(C)S(=O)(=O)c1cccc(OC)c1)[C@H](C)CN([C@H](C)CO)S2(=O)=O", "activity change (Venus) (%)": "-20.17"}
{"smiles": "O=C(Cc1ccccc1)N1CC(=O)N2[C@H](CO)[C@@H](c3ccc(-c4ccccc4)cc3)[C@@H]2C1", "activity change (Venus) (%)": "-31.66"}
{"smiles": "C[C@@H]1CCCCO[C@H](CN(C)C(=O)Nc2ccccc2)[C@@H](C)CN([C@@H](C)CO)C(=O)c2cc(NS(=O)(=O)c3ccccc3)ccc2O1", "activity change (Venus) (%)": "-33.7"}
{"smiles": "C[C@H]1CN([C@@H](C)CO)C(=O)c2cccc(NC(=O)Nc3ccc(C(F)(F)F)cc3)c2O[C@H]1CN(C)Cc1ccc(Cl)c(Cl)c1", "activity change (Venus) (%)": "-46.35"}

Once more, the final 2:

* C[C@@H]1CCCCO[C@H](CN(C)C(=O)Nc2ccccc2)[C@@H](C)CN([C@@H](C)CO)C(=O)c2cc(NS(=O)(=O)c3ccccc3)ccc2O1 | activity change (Venus) -33.7%
* C[C@H]1CN([C@@H](C)CO)C(=O)c2cccc(NC(=O)Nc3ccc(C(F)(F)F)cc3)c2O[C@H]1CN(C)Cc1ccc(Cl)c(Cl)c1 | activity change (Venus) -46.35%

Source: PubChem BioAssay AID1053133 (Broad Institute, 2014).